# Experimental data taken from the supplement of paper PMC8497498.
# ± gives the standard deviation of the averaged measurements. Some of the results follow. The data scatter; read single values as rough.
# Experiments:
# Details in all cases: 10 µM
# [1] = system: Plasmodium vivax liver stage (primary human hepatocyte culture); assay: hypnozoite quantity inhibition (% inhibition); higher = more active against hypnozoites
# [2] = system: Plasmodium vivax liver stage (primary human hepatocyte culture); assay: schizont net growth area inhibition (% inhibition); higher = more active against liver schizonts
# [3] = system: primary human hepatocytes; assay: hepatic nuclei reduction relative to DMSO (100 - % of negative control); higher = more toxic to hepatocytes
# [4] = assay mode: Prophylactic (treated before or shortly after infection), fixed day 6 post-infection
# [5] = assay mode: Radical Cure (treated from day 5 post-infection for 3 days), fixed day 8 post-infection
Compound,"hypnozoite quantity inhibition [1, 4]","hypnozoite quantity inhibition [1, 5]","schizont net growth area inhibition [2, 4]","schizont net growth area inhibition [2, 5]","hepatic nuclei reduction [3, 4]","hepatic nuclei reduction [3, 5]"
Cc1cc(NCCN2CCCCC2)c2ccc3ccccc3c2n1,-8,35.9,-94.6,20.1,2%,4%
CCc1nc2ccc(Cl)cn2c1C(=O)NCc1ccc(N2CCC(c3ccc(OC(F)(F)F)cc3)CC2)cc1,-14,-38,9.1,-82.8,-13%,-1%
CCCCC(O)(c1ccc(Cl)cc1)C(CN1CCOCC1)c1ccc(Cl)cc1 (stereo not given),29.7,-3.5,49.2,-105,1%,-5%
Nc1ncnc2c1ncn2C[C@@H](O)[C@@H](O)C(=O)O,24,-33,5.6,-54.5,-3%,-4%
COc1ccccc1N1CCN(C(CNS(=O)(=O)c2ccc(Cl)cc2)c2cccnc2)CC1 (stereo not given),12.6,26.5,-35.1,39.6,-5%,6%
c1ccc(CNc2nc(Nc3ccccc3)nc3ccccc23)cc1,21,17.6,23.8,-6.7,-11%,0%
Cc1ccc2c(C)nc(Nc3nc(C)cc(-c4ccccc4)n3)nc2c1,3.9,26.7,31.9,-50,-8%,4%
CN(C)c1ccc(N2C(N)=NC(N)=NC2(C)C)cc1,3.8,37.4,-47.5,-26.8,-1%,-5%
O=C(Cc1ccccc1)NC(c1ccc(Cl)cc1)c1c(O)ccc2ccccc12 (stereo not given),-17.7,45,-63.9,30.8,-4%,1%
CC1(C)Cc2c(c(N3CCOCC3)nc3snc(Br)c23)CO1,-17,-27,19.9,63.5,-7%,-2%
CSC1=NC(=Nc2c(C)cccc2C)C2(CCC(C(C)(C)C)CC2)N1c1ccc(Cl)cc1 (stereo not given),-26.6,42.7,76.6,-10.4,-10%,-6%
COc1ccc(C2CC(c3cccs3)=NN2C(=O)c2ccco2)cc1OC (stereo not given),-3,1,-13.2,-52.4,-8%,9%
COc1cccc(C(=O)Nc2ccc(-c3nc4ccccc4[nH]3)cc2)c1,-26.6,33.6,-3.2,23.4,5%,-7%
COc1ncnc(NS(=O)(=O)c2ccc(N)cc2)c1OC,-3,44,-56.1,54.9,-18%,-4%
Cc1cccnc1NC(=O)c1cccc(OCc2c(C)noc2C)c1,15,-33,6.6,-30.8,-7%,-9%
O=C(Nc1c(O)cccc1-c1nc2c(C(=O)O)cccc2o1)c1cc(-c2ccccc2)on1,7,-15,17.4,-41.5,2%,10%
Cc1ccc(C)c(-c2csc(Nc3ccc(C)c(C)c3)n2)c1,-12.6,26.5,-3.6,-88.5,6%,0%
CC(=O)N1CCN(c2ccc(Oc3ccc(Cl)cc3O)cc2)CC1,-19,-24,-8.5,70.9,-9%,0%
CN(Cc1cnc2nc(N)nc(N)c2n1)c1ccc(C(=O)N[C@@H](CCC(=O)O)C(=O)O)cc1,-27,31,37.3,10.2,-11%,-6%
CCOC(=O)c1cn(CC)c2cc(N(C)CCc3ccc(OC)c(OC)c3)c(F)cc2c1=O,10.7,21,5,-9.3,6%,0%

Compound,"hypnozoite quantity inhibition [1, 4]","hypnozoite quantity inhibition [1, 5]","schizont net growth area inhibition [2, 4]","schizont net growth area inhibition [2, 5]","hepatic nuclei reduction [3, 4]","hepatic nuclei reduction [3, 5]"
c1ccc(Cn2c(N=Nc3c(Nc4ccccc4)ccc4ccccc34)nc3ccccc32)cc1,-38.5,1.5,89.6,40.8,4%,2%
CCN(CCO)CCCC(C)Nc1ccnc2cc(Cl)ccc12 (stereo not given),-26,60,-4.4,83.3,2%,-1%
c1ccc(-c2nc(NC3CCCCC3)cc(C3CC3)n2)nc1,-41,-41,93.4,-31.6,-4%,1%
CC(C(=O)N1CCCC1)N1CCN(S(=O)(=O)c2ccc(C(C)(C)C)cc2)CC1 (stereo not given),52,16,8.6,10.7,0%,1%
CCCCN(CCCC)S(=O)(=O)c1ccc(NC(=O)c2ccco2)cc1,4.6,72.5,-1.2,59.6,-4%,2%
Cc1nn2c(=O)c3c([nH]c2c1-c1ccc(Cl)cc1)CCCC3,-19,-12,1.7,-59.9,0%,-2%
CC1Cc2c([nH]c3cc(Cl)c(F)cc23)C2(N1)C(=O)Nc1ccc(Cl)cc12 (stereo not given),-42,-1,28.5,67.9,-9%,-2%
CC(=O)c1ccc(NC(=O)CSc2nc(-c3ccccc3Cl)ns2)cc1,-19.9,29,0.3,38,-7%,-3%
CCOc1c(Cl)cc(CNCC(O)c2ccccc2)cc1OC (stereo not given),-15.8,23.7,-8.6,19.4,9%,-9%
COc1ccc(OC(C)C(=O)Nc2ccc(Cl)cc2C)cc1 (stereo not given),-28,-31,9.3,-144,-10%,-8%
CC(C)(C)c1cc(O)c(CN)c(C(C)(C)C)c1.Cl,-26,10,15.9,-38.4,6%,0%
CC1CCCCN1CCCNC(=O)c1ccc2c(c1)sc1nc(-c3ccc(F)cc3)cn12 (stereo not given),-16.2,22.1,-21.2,51.9,-3%,5%
CN(C)CCCNCc1ccc(-c2ccc(F)c(Cl)c2)o1,-11,47.3,24.8,37,-1%,4%
O=C(CCC1CCCCC1)Nc1cccc(-c2nnc(-c3ccco3)o2)c1,13,40,24.2,-49.9,1%,0%
CCCCCn1c(=N)n(CC(O)COc2cccc(C)c2)c2ccccc21 (stereo not given),-12.5,58.8,-13,3.1,1%,1%
CCN(CC)CCCCCCNc1cc(OC)cc2c(C)ccnc12,-3.5 ± 5,-15.5 ± 25,61.2 ± 6.7,6.2 ± 9.1,0 ± 1.4%,-6 ± 1.4%
Cc1c(CCO)sc[n+]1CCCCCCCCCCCC[n+]1csc(CCO)c1C,-26,52,44.2,39.9,-13%,-6%
CC(C)(C)OC(=O)N1CCN(c2nccc(-c3ccc(-c4ccc(Cl)cc4)s3)n2)CC1,-88,-85,41.1,-104,-2%,-5%
N#CCN(CCCCN1CCN(c2ccc(F)cc2)CC1)C(=O)OCc1ccccc1,7,3,26.1,-41.7,-5%,-4%
CCOC(=O)c1cnc2c(C)cc(C)cc2c1Nc1ccc(OC)c(OC)c1,-22.9,-3.1,-4.8,-17.6,-17%,-2%

Compound,"hypnozoite quantity inhibition [1, 4]","hypnozoite quantity inhibition [1, 5]","schizont net growth area inhibition [2, 4]","schizont net growth area inhibition [2, 5]","hepatic nuclei reduction [3, 4]","hepatic nuclei reduction [3, 5]"
COC(=O)c1ccc(F)cc1NS(=O)(=O)c1cccc(-c2cnn(Cc3ccccc3)c2)c1,34,-38,17.2,-51.2,-4%,-6%
CCOc1cccc(C(=O)Nc2ccc(-c3nc4ccccc4[nH]3)cc2)c1,4.6,22.1,39.8,21.9,6%,-2%
CNC(=O)CNc1nc(-c2ccccn2)nc2scc(-c3ccccc3)c12,42,27,47.2,-36.9,5%,-1%
COc1ccc(C(=O)NC(c2ccccc2Cl)c2cc(Cl)c3cccnc3c2O)cc1 (stereo not given),-16.4,34.6,96.4,43.2,1%,-6%
CC1CC2=C(CC1CNCCCN(C)C)C(C)(C)CCC2 (stereo not given),24,37.4,90.6,-10,6%,-3%
Nc1nc2ccc(-c3cncc(Oc4ccc(F)cc4)c3)cc2[nH]1,4,-23,6.9,-168,-8%,-9%
O=C(Nc1ccc(Cl)c(Cl)c1)Nc1ccc(Cl)c(Cl)c1,32.2,53.7,45,-7.4,2%,-4%
COC(=O)C1=C(C)NC(C)=C(C(=O)OC(C)C)C1c1cccc2nonc12 (stereo not given),22,-25,-12.2,-35.9,1%,-4%
COc1ccc(C(=O)NC(c2ccc(Cl)cc2Cl)c2cc(Cl)c3cccnc3c2O)cc1 (stereo not given),24,-3.5,25.4,-18.8,-6%,-1%
Cc1ccc(NC(=O)c2cc(S(=O)(=O)NC(C)(C)C)ccc2C)nc1,-53,4,-86.1,32.8,-11%,2%
Cc1nc(-c2cccc(NCc3ccccc3)c2)[nH]c1C,-30,33,37.1,37,-4%,0%
CC(C)(C)NCc1cc(C(C)(C)C)cc(-c2ccc(Cl)cc2)c1O,-5,36,44.2,7.9,-11%,-7%
O=C(NC1CCN(Cc2ccccc2)CC1)c1cc(-c2cccnc2)nc2ccc(Cl)cc12,-19,15.6,-48.7,27.2,6%,-10%
CN1CCN(S(=O)(=O)c2ccc(-c3ccc4c(Nc5ncc(Cl)cn5)ccnc4c3)cc2)CC1,1,6,59.9,-66.3,-5%,-13%
COc1cc(C2=NCCN2)ccc1-c1cn(-c2cccc(C3=NCCN3)c2)nn1,-44,-72,-7.7,-97,11%,-1%
O=C(OCc1ccccc1)N1CCC(c2cc(-c3ccncc3)c(-c3ccc(F)cc3)[nH]2)CC1,65,-20,30.1,-59.6,26%,-5%
CCOc1ccc(Nc2c3ccccc3nc3ccccc23)cc1,12,40.1,7.4,29.4,-6%,-2%
O=C(C1CCN(c2nnnn2-c2ccccc2)CC1)N1CCc2ccccc2C1,-49,-8,31.6,-1.4,-6%,6%
FC(F)(F)c1cccc(Nc2nc3ccccc3nc2Nc2cccc(C(F)(F)F)c2)c1,-28.8,35.9,51.5,37.5,-18%,-6%
Cc1cc(N2CCCC2)nc(Nc2ccc(NC(=O)CCc3ccccc3)cc2)n1,-11.4,59.1,50.4,-9.6,13%,-14%

# Quoted from the listing.
# Value of `COc1ccc(C(=O)NC(c2ccccc2Cl)c2cc(Cl)c3cccnc3c2O)cc1` (stereo not given) under hepatic nuclei reduction [3, 5]: -6%
# Value of `O=C(Nc1ccc(Cl)c(Cl)c1)Nc1ccc(Cl)c(Cl)c1` under hypnozoite quantity inhibition [1, 4]: 32.2

# Single records, as listed above:
# `COC(=O)c1ccc(F)cc1NS(=O)(=O)c1cccc(-c2cnn(Cc3ccccc3)c2)c1` in the list: hypnozoite quantity inhibition [1, 4]: 34; hypnozoite quantity inhibition [1, 5]: -38; schizont net growth area inhibition [2, 4]: 17.2; schizont net growth area inhibition [2, 5]: -51.2; hepatic nuclei reduction [3, 4]: -4%; hepatic nuclei reduction [3, 5]: -6%
# `Cc1nc(-c2cccc(NCc3ccccc3)c2)[nH]c1C` in the list: hypnozoite quantity inhibition [1, 4]: -30; hypnozoite quantity inhibition [1, 5]: 33; schizont net growth area inhibition [2, 4]: 37.1; schizont net growth area inhibition [2, 5]: 37; hepatic nuclei reduction [3, 4]: -4%; hepatic nuclei reduction [3, 5]: 0%
